Values quoted from earlier work as cited in patent publication US20230037862A1, “SYNTHETIC AGONISTS OF TLR4 RECEPTOR” (UNIVERSITÀ DEGLO STUDI DI MILANO - BICOCCA, priority 2017, published 2023).
At least one compound was matched to its structure with a doubt left.

Tested on: infective agent
Details: depending on infective agent and administration route; cited from earlier work

CCCCCCCCCCC[C@@H](O)CC(=O)N[C@H]1[C@@H](OP(=O)(O)O)O[C@H](CO)[C@@H](OC(=O)C[C@H](O)CCCCCCCCCCC)[C@@H]1OC(=O)C[C@H](O)CCCCCCCCCCC [SDZ MRL 953]
therapeutic index LD25/ED75: 5 to >500
